# Assay results published in PMC13042082.
# Chains of the proteins cited; added tags and fusions are not shown. Lines headed by an entry give the natural chain unless they say otherwise; changes in a name come on top. Residues count along the entry.
# UniProt Q15109, residues 23-404: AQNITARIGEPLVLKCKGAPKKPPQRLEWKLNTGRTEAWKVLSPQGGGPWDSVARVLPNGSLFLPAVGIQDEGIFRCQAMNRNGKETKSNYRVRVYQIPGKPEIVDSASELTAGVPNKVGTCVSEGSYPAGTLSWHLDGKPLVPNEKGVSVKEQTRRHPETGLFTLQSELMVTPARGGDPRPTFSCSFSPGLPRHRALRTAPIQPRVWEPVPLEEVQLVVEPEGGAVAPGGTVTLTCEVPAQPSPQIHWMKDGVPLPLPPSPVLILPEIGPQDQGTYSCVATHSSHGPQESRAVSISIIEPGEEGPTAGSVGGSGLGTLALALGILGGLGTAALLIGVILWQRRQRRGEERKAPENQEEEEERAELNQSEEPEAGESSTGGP
# UniProt P08311: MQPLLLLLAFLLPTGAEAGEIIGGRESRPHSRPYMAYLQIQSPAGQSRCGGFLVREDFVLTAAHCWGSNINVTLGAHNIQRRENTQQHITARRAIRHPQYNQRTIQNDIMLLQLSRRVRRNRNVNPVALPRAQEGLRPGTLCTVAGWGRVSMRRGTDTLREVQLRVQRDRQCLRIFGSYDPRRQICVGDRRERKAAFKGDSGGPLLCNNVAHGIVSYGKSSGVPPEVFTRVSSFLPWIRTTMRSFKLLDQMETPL
# These are yes or no findings as the source states them, for the method shown. In cells and extracts the contact can be indirect. A result given as binding can be weak or reduced; the word gives no strength.
# Target: His tag fused RAGE (receptor for advanced glycation end products) (UniProt Q15109)
# Experiment: pull-down; His-tagged RAGE overexpressed in 293T cells; lysate (50 mM NaH2PO4, 300 mM NaCl, 10 mM imidazole, pH 8.0) incubated with 2 ug CTSG at 4 C for 2 h; captured on Ni-NTA agarose beads, washed 3 times, Western blot with anti-His tag and anti-CTSG antibodies; the paper calls it co-immunoprecipitation; only the binder purified
substance,measurement,value
Cathepsin G (from UniProt P08311) (enzyme),binding,binds
